{"source": "PubChem BioAssay AID493014", "about": "(National Center for Advancing Translational Sciences (NCATS), 2011)", "note": "In all, about 340,000 compounds went through this assay and about 170 (0.05%) were called active. Inconclusive results, whose numbers are uncertain, are shown with a selection of clear calls. Calls come from the whole dose curve; as a rule, active = well fitted inhibition curve with a large enough effect in the signal ratio, with a control signal flat (not every such curve was filed as active); inconclusive = small, poorly fitted or top-dose-only effect, or effect the other way, or a change in a side signal; inactive = flat fitted curve, though single readings scatter; the % refers to the signal ratio. A potency beside an inconclusive call is a rough fit, not a confirmed value. Potency is the fitted concentration of half-maximal effect.", "data": [{"assay": "qHTS Assay to Find Inhibitors of Chronic Active B-Cell Receptor Signaling;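 for activity change, negative = inhibition: plate controls were basal doxycycline-induced cells for no effect and cells given 10 µM MG132 for full effect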", "conditions": "ABC-DLBCL IkBa-CBG/CBR reporter, luminescence ratio (green luciferase fused to IkBa over red control in TMD8 lymphoma cells), 4 h; activity change, negative = inhibition: at 46.1 µM (top of the series)", "procedure,_shortened": "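Cell line TMD8 (human ABC DLBCL), stably expressing tet-inducible CBG68-IkBa fusion and CBR; IMDM/0.5% FBS; cpd up to 46 uM; dox induction, 4 h, 37C/5% CO2; dual luminescence; green/red ratio; MG132 control.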", "values": [{"compound": "COc1cc(OC)cc(-c2cc3ccccc3c(=O)o2)c1", "activity change, negative = inhibition": "inconclusive: 2.14%"}, {"compound": "COc1ccc(N2CC(C(=O)OCC(=O)Nc3cccc(C)c3)CC2=O)cc1", "note": "(stereo unspecified)", "activity change, negative = inhibition": "inactive: -2.38%"}, {"compound": "Cc1coc2c(C)c3oc(=O)c(CCC(=O)NCCCn4ccnc4)c(C)c3cc12", "activity change, negative = inhibition": "inconclusive: -20%"}, {"compound": "Cc1ccc(Nc2nc(C(=O)NCc3ccco3)cs2)cc1", "activity change, negative = inhibition": "inconclusive: -7.65%"}, {"compound": "Cc1cccc(-c2noc(CCC(=O)NCc3ccccc3)n2)c1", "activity change, negative = inhibition": "inconclusive: 20.2%"}, {"compound": "Cn1c(=O)c2c(nc(CN3CCCCC3)n2Cc2c(F)cccc2Cl)n(C)c1=O", "activity change, negative = inhibition": "inconclusive: 20.5%"}, {"compound": "Cc1cccc(Cn2c(SCCO)nc3c2c(=O)n(C)c(=O)n3C)c1", "activity change, negative = inhibition": "inconclusive: 1.67%"}, {"compound": "CCOC(=O)C1=C(C)NC(=S)NC1c1ccc(-c2ccc(Cl)cc2)o1", "note": "(stereo unspecified)", "activity change, negative = inhibition": "inconclusive: -10.4%"}, {"compound": "CC1=NN(c2cccc(C(=O)O)c2)C(=O)/C1=C\\C=C\\c1ccco1", "activity change, negative = inhibition": "inconclusive: -7.08%"}, {"compound": "O=C(O)C1C2C=CC(C3CC23)C1C(=O)O", "note": "(stereo unspecified)", "activity change, negative = inhibition": "inconclusive: 7.46%"}, {"compound": "O=C(NCc1ccccc1Cl)c1cccc(C(F)(F)F)c1", "activity change, negative = inhibition": "inconclusive: 18.5%"}, {"compound": "COc1c(F)c(F)c(C(=O)Nc2ccc(NC(=O)c3ccco3)cc2)c(F)c1F", "activity change, negative = inhibition": "inconclusive: -14.4%"}, {"compound": "Cc1cccc(N2C(S)=C(C#N)C(=O)NC2c2cccs2)c1", "note": "(stereo unspecified)", "Potency": "inconclusive: 23.1 µM [falling, partial curve, poor fit]"}, {"compound": "COc1ccc(S(=O)(=O)N2CCC(C(=O)Nc3ccccc3N3CCCCC3)CC2)cc1OC", "activity change, negative = inhibition": "inactive: 4.87%"}, {"compound": "CCOC(=O)CCC(NC(=O)CCCCCCCCC(=O)NC(CCC(=O)OCC)C(=O)OCC)C(=O)OCC", "note": "(stereo unspecified)", "activity change, negative = inhibition": "inconclusive: 2.39%"}, {"compound": "CCN(CC)c1nc2ccccc2n(Cc2cccc(OC)c2)c1=O", "activity change, negative = inhibition": "inconclusive: 23.3%"}, {"compound": "N/C(=N\\OC(=O)CCC1CCCC1)c1ccccn1", "activity change, negative = inhibition": "inconclusive: 1.16%"}, {"compound": "Cc1cccc(C(=O)N/N=C/c2ccncc2)c1", "Potency": "inconclusive: 10 µM [falling, partial curve]"}, {"compound": "CN(Cc1ccccc1)CC(O)COc1ccc(CNCc2cc3ccccc3s2)cc1", "note": "(stereo unspecified)", "Potency": "inconclusive: 22.4 µM [falling, single point]"}, {"compound": "COC(=O)c1cn(-c2ccccc2)nc1-c1ccccc1", "Potency": "inconclusive: 4.61 µM [rising, full curve, poor fit]"}, {"compound": "C=C(C)CN(CC)c1nc(N)c2c(N)nc3c(c2c1C#N)CC(=O)N3C12CC3CC(CC(C3)C1)C2", "activity change, negative = inhibition": "inconclusive: 2.83%"}, {"compound": "Cc1ccc(NC(=O)COC(=O)c2ccc(-n3cccn3)cc2)cc1C", "activity change, negative = inhibition": "inconclusive: 4.83%"}, {"compound": "COc1ccc(/C=C2\\SC(=S)N(CCCC(=O)N3CCN(C)CC3)C2=O)cc1", "Potency": "inconclusive: 6.31 µM [falling, full curve]"}, {"compound": "O=C(Nc1ccccc1)c1ccc(-c2ccc(F)cc2)s1", "Potency": "inconclusive: 3.98 µM [rising, partial curve, poor fit]"}, {"compound": "CCOc1ccccc1NC(=O)CC1Nc2ccccc2NC1=O", "note": "(stereo unspecified)", "Potency": "inconclusive: 23.1 µM [falling, partial curve]"}, {"compound": "CCNC(=O)c1ccccc1-c1nc(-c2ccccc2OC)no1", "activity change, negative = inhibition": "inconclusive: 8.74%"}, {"compound": "CCOC(=O)/C(=N\\Nc1ccc(Br)cc1)N1CC(C)OC(C)C1", "note": "(stereo unspecified)", "activity change, negative = inhibition": "inconclusive: -3.51%"}, {"compound": "O=c1[nH]c(Nc2ccccc2)cc2ccccc12", "Potency": "inconclusive: 15.8 µM [falling, partial curve]"}, {"compound": "O=C(CSC1=NCCS1)Nc1ccccc1F", "activity change, negative = inhibition": "inconclusive: -16.8%"}, {"compound": "Cc1ccc(NC(=O)C2CCCC2)cc1S(=O)(=O)N1CCOCC1", "activity change, negative = inhibition": "inconclusive: 0.403%"}, {"compound": "COc1cc(CNCCO)cc(Br)c1OCc1ccccc1Cl", "activity change, negative = inhibition": "inconclusive: 1.73%"}, {"compound": "COc1ccccc1N1CCN(C(=S)Nc2ccc3nc(N4CCOCC4)cc(C)c3c2)CC1", "Potency": "inconclusive: 12.6 µM [falling, partial curve, poor fit]"}, {"compound": "O=c1c2cc(N3CCOCC3)ccc2[nH]c(=S)n1CCCN1CCN(c2ccccc2F)CC1", "activity change, negative = inhibition": "inconclusive: 4.6%"}, {"compound": "CC(=O)NCC(=O)NC(C(=O)Nc1ccc2c(c1)OCCO2)c1ccccc1", "note": "(stereo unspecified)", "activity change, negative = inhibition": "inconclusive: 6.15%"}, {"compound": "CSc1cc(C)n(-c2ccccc2)c(=S)c1C(C)=O", "activity change, negative = inhibition": "inconclusive: 19.2%"}, {"compound": "COc1ccccc1N1CCN(C(=O)c2oc3cc(C)cc(C)c3c2C)CC1", "activity change, negative = inhibition": "inactive: -3.98%"}, {"compound": "Cc1cc(/C=N/Nc2ccc([N+](=O)[O-])cn2)c(C)n1-c1ccccc1", "activity change, negative = inhibition": "inconclusive: 16.8%"}, {"compound": "CC(C)(C)n1nc(-c2ccc(F)cc2)c2c(N)ncnc21", "Potency": "inconclusive: 7.31 µM [falling, partial curve]"}, {"compound": "Cc1cc(OCC(=O)N(Cc2ccco2)C2CCS(=O)(=O)C2)ccc1Cl", "note": "(stereo unspecified)", "Potency": "inconclusive: 15.8 µM [falling, partial curve]"}, {"compound": "Cc1cc(C)n(-c2nc3ccccc3nc2N2CCN(C(=O)c3ccccc3)CC2)n1", "activity change, negative = inhibition": "inconclusive: 8.15%"}, {"compound": "Cc1cc(C(=O)N/N=C2/CC(C)CC(C)(C)C2)c(C)o1", "note": "(stereo unspecified)", "Potency": "inconclusive: 31.6 µM [rising, single point]"}]}]}
